Laboratory results taken from patent US20170016916.
Results from cells or extracts need not show a direct contact.

Molecular target: cardiac troponin I (Troponin I, cTnI) (Homo sapiens) (UniProt P19429)
Assay: binding assay
Details: immobilized on metal surface of reactive electrode; HEMT-type transistor biosensor; human serum with 0.033, 1.886 and 33.7 ng/ml Troponin I; protein in an extract; protein details: endogenous in human serum samples; single-stranded DNA

Q: Does “CGCATGCCAAACGTTGCCTCATAGTTCCCTCCCCGTGTCC [Troponin I aptamer]” bind?
A: binds
